# In PubChem BioAssay AID1347423 (Functional Genomics Laboratory (NCATS/FGL), 2020):
# Hit rate of the full screen: of about 52,000 sequences, about 210 (0.4%) were called active.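 How the source made its calls: active means gene whose silencing raises cell survival under the drug, median off-target-corrected z-score across its silencing RNAs 2 or more; inactive means the rest.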 The list shows a part of the results.
# Assay: Resistance to Poly (ADP-Ribose) Polymerase inhibitor: Gene Identification via Genome-wide siRNA Screen
# Conditions: mouse BRCA2 R2336H ES cells, olaparib, CellTiter-Glo viability; active compounds read high
# Summary of the method: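 Genome-wide siRNA screen (3 siRNAs/gene, 20 nM) in mouse ES cells carrying hypomorphic BRCA2 R2336H; olaparib 500 nM added 48 h post-transfection, CellTiter-Glo viability 72 h later. Normalized to plate-median negative control; MAD z-scores, gene median, seed-adjusted.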
row,Sequence,z-score
1,GGACAUCCGUCCCUAUAUCTT against Zfp366,inactive: 0.516
2,GCGAGAAAUUACCACCUUCTT against Klhl8,inactive: -0.475
3,GCUAUUCUGGUGUCAAGACTT against Gbp1,inactive: -0.426
4,GCGGAGAAUAACAUAUCUCTT against Fut8,inactive: 0.214
5,CGAAAGUUACUCAUAGAGATT against Itga6,active: 0.364
6,GGCGGAAAUGCAAAUGCAATT against Bxdc1,inactive: -0.61
7,GCCGGGAUUUCGUUUUCUUTT against BC031407,inactive: 1.57
8,GGAAAAAGGCUUUUGGGACTT against Olfr135,inactive: -0.216
9,GAUUCCAAGACAUUAAACATT against Frda,inactive: -1.67
10,GCACGGCCCUACUUUAUAGTT against Trim33,inactive: -1.64
11,CGGUUGUCUUCCUCUUAGUTT against Fzd5,inactive: -1.44
12,CGCACUGGAUAAUAUCAGCTT against Dok5,inactive: -0.307
13,GGAAAAUCAUGGGAGCCUUTT against Lpo,inactive: -1.5
14,GGCAGUCCUUCCUCCAAAGTT against A630048M13Rik,inactive: -1.16
15,GGCUGAAGAUGGAAACAUCTT against Gtpbp2,inactive: 0.741
16,GGAUUUCAACAUCUAUGGCTT against Tpra40,inactive: 0.185
17,GGGAAGUUUCUUGAAGCACTT against Rfxank,inactive: -0.821
18,GCAGAUCUGCGUCAAUGCUTT against Scube1,inactive: 0.0542
19,GGAGUAUGAUUCAGAAAUGTT against Scn11a,inactive: -0.351
20,GGAUUUGUGACUUUCUGCATT against 4930583C14Rik,inactive: 0.696
21,GGGAUCGCUGUAUAGAAAUTT against Chdh,inactive: 0.124
22,GGUAAAGUGGGAUGUGGAATT against C130067A03Rik,inactive: -1.01
23,GCGAGAUUCUUAAAGAAAUTT against Brdt,inactive: -0.0933
24,GGCCAAAGUACUUUGUUCCTT against 4930402E16Rik,inactive: -0.661
25,GGCUUUGUAGCGAUAACAATT against D930030D11Rik,inactive: -0.637
26,CCUGUGGAUUAUGAGUUCATT against Zfhx1a,inactive: -0.827

# Exported with tabs: part of the list above
row	Sequence	z-score
9	GAUUCCAAGACAUUAAACATT against Frda	inactive: -1.67
10	GCACGGCCCUACUUUAUAGTT against Trim33	inactive: -1.64
11	CGGUUGUCUUCCUCUUAGUTT against Fzd5	inactive: -1.44
12	CGCACUGGAUAAUAUCAGCTT against Dok5	inactive: -0.307
13	GGAAAAUCAUGGGAGCCUUTT against Lpo	inactive: -1.5

# Next part.

row,Sequence,z-score
1,GCCGCUUAGAGGCUCAUCUTT against Nfe2l2,inactive: 0.218
2,GGAAAUUAAGUGAUUUGACTT against 4432417N03Rik,inactive: -0.196
3,GAGCUAAGCAAGAUGCUAGTT against Sox17,inactive: -0.182
4,GGAAACCUAUGUCUCAAGATT against Mrps36,inactive: -0.223
5,CGUAUUAUGUCUGGUUUGUTT against Slc35a1,inactive: -0.624
6,GGGUGUUUUCAUUAACACATT against Setdb1,inactive: -0.483
7,GGUGAGCACCUUCAAGUCUTT against Gpc2,inactive: 0.589
8,GGGUACCUCAUAAAGCAUATT against Dock2,inactive: -0.228
9,GAAUGAGGAUCUACGAAAATT against Crygb,inactive: 0.434
10,GGAUCUCUCCUUGAGGAGATT against Glp2r,inactive: -0.357
11,GGGACUUCCUUAUUGGAACTT against A830019P07Rik,inactive: -0.0745
12,GCGAGUAAUUUCGUUUCCCTT against Hoxd3,inactive: 0.0831
13,GGUUCUGAAGAUGGAGGUUTT against Ttbk1,inactive: -1.25
14,GCAUCAAAAAAAAUUCGUGTT against Dpysl2,inactive: -0.454
15,GGCUAAUCCACUCUGAGUATT against Wasl,inactive: 0.416
16,GCCUGGCUAGAAAUGUGGUTT against Fprl1,inactive: 0.157
17,GGCAGUUCCUGGAUUACCUTT against Il5,inactive: 0.711
18,GGCUGUGAAGAACUGGCAGTT against Rnaseh2a,inactive: 0.859
19,GCGAACCAAAAUUGAGUUUTT against Hcngp,inactive: 1.31
20,GGUGUCCACAUUAAAUUACTT against Foxb1,inactive: 3.51
21,UUGGGAUGGGUCAUGCCUUTT against LOC381806,inactive: 1.68
22,GGUGUUCUUAAUGAGAUUCTT against Gdf5,inactive: -0.309
23,GGCCUAAACACGGUUUUCATT against C79127,inactive: -2.14
24,CGAAAACCUUGCCACUGAGTT against 2810427I04Rik,inactive: 2.97
25,GGUGGAACAACUGUUUCAATT against Dyrk3,inactive: 0.722
26,AUGAAGUCGUUGUUCUCAUTT against Olfr918,inactive: -1.05

row,Sequence,z-score
1,CCUGGAAGUUUUGAGACACTT against AI839562,inactive: 1.32
2,GGAUACAAAUCAGGUUCUCTT against 2310037I24Rik,inactive: -1.71
3,GGAUCCUGUUAAGAUUAUCTT against 2900006B13Rik,inactive: 1.17
4,GGCAUCUGACGAUAAUGAUTT against Lman2l,inactive: 1.13
5,GGAUGAAAUCUCUAUCCUCTT against BC029169,inactive: 0.136
6,GGAAAUGGCUCAUUUUAUCTT against Tmem32,inactive: 1.56
7,CGAUUUCCUUGGCACCAAUTT against Arhgap1,inactive: -0.998
8,GCAACUACGUGUUCGUGUUTT against Rabac1,inactive: 0.916
9,GCAAAUCGACCACUUUCCGTT against Cacng2,inactive: 1.21
10,GGUUUUUGAGUGGGAGACCTT against 2410004A20Rik,inactive: -0.0378
11,GCACGAUCUUCCAAACCCUTT against Dhh,inactive: 0.413
12,GCUGCACCAUCAAUUCCCATT against Vpreb3,inactive: -1.68
13,GGUGUCAACUUUAUUCUUUTT against Rab1,inactive: 0.314
14,GGUUCAAAAGUCGAGCGAATT against Nudt9,inactive: 0.425
15,CGAAGUACGAGAAACACGUTT against AI316807,inactive: -2.64
16,CCUGAAAACACGUAUUGAATT against Igfbp4,inactive: -1.14
17,GGACGACUUCUACCUCAACTT against Fzr1,inactive: -1.55
18,GCGAAUCUCCACAAGAUGGTT against 2300002M23Rik,inactive: -0.91
19,GGAAGGUACCUACUCACUATT against Gm2a,inactive: -1.11
20,GGUAACUUCUCUUCUGAGATT against H2-Oa,inactive: 0.491
21,CCAUCUAGGUUAUUACAUGTT against 4930521A18Rik,inactive: 0.108
22,GGCAUAGGACUAGAAGCAGTT against 1500011J06Rik,inactive: -1.65
23,GCACAUGUAUCCAUGCUUCTT against Kcnj11,inactive: 0.624
24,GGGAUGAGACACGAAACCUTT against Itga2b,inactive: -0.424
25,GCUGAGGGAUAUCUCAGCCTT against Edn2,inactive: 0.0989
26,GGACUAUGAAAUUGACUGUTT against Hdlbp,inactive: -0.0015

row,Sequence,z-score
1,CGACCUAACCAACAUGCUUTT against Ddefl1,inactive: 0.602
2,GGACCCAUCGGAUAACUAUTT against 2310004N11Rik,inactive: -0.885
3,CCAGCUAUUGGAAGUAAAATT against Nbn,inactive: -1.57
4,GGUUGUCAUUCUUAUCCUUTT against Mageb1,inactive: 0.666
5,GCUGGGCAUUACCCAUGUUTT against Dusp13,inactive: -0.443
6,GGAAGGUGGCUAUUUUAAUTT against Acsl3,inactive: 0.94
7,CCUUCAAUCUUCCUAGUGATT against Bat3,inactive: 0.779
8,GGAGCUUCCACAACUCAUATT against Esd,inactive: -0.0778
9,GGACCUUCUUUGAACAUAATT against 6430537H07Rik,inactive: -2.14
10,GGUUAGCCUACUCUCUAAUTT against Tomm22,inactive: -0.0167
11,CCAUUGACUCCAGUGGGAATT against 2610205E22Rik,inactive: -1.79
12,GUCUUCUCUGCCUGUCUGATT against Sprrl1,inactive: -0.316
13,GCUAGAGGAGUUUCUAAACTT against Clu,inactive: 1.23
14,GGAUGGUGGCAUUUUACAGTT against 2810407A14Rik,inactive: 1.42
15,GGCCUGCCAGAUAUGAAAATT against Ces2,inactive: -0.881
16,CCGAGUGAUGACCUACCGUTT against 1700019E19Rik,inactive: 2.41
17,CCACUUCUUUCCAUGAACUTT against Slc6a4,inactive: -0.00872
18,GGAUGGUCUGCUAUUACAUTT against Phf7,inactive: -1.14
19,GGCAAGUUCCGAGAAGGGATT against Irf4,inactive: -0.916
20,GGGAGAAGAGAUUCUGAUATT against Sh2d1a,inactive: 0.179
21,CGAUGAACACACGUCUUAUTT against 2810047L02Rik,inactive: -1.33
22,GGUAUUAUUUCUGAAUGCCTT against Mtrf1l,inactive: 1.49
23,GGAGUGGGAGAAGAUGGAATT against Mbd4,inactive: -1.55
24,GGAAACAGCUGCUAAGUGCTT against Dhrs8,inactive: 0.0688
25,CGGCCUCUUCUGGUUGUUGTT against BC038286,inactive: 0.616
26,GCAUCAGCUCACCUUUGUATT against BC049354,inactive: -0.629
